The source of these data is PMC12670408 (Journal of Medicinal Chemistry, 2025).

Numbered stars: 1 amine (or outer) side, 2 acyl side, 3 side chain; on linkers, the order of the positions; unused ones are H or OH. Square brackets hold non-standard residues; d marks the D form. Ile(ψThz) = CC[C@H](C)[C@H](N[*:1])c1nc(C(=O)[*:2])cs1

This series is described as follows: general procedure: Fmoc solid-phase peptide synthesis; chlorotrityl chloride resin; PyBOP/DIPEA; COMU for dipeptide fragments; PyBOP for solution cyclisation. The settings on record: whole synthesis.

In the case of “cyclo(AFPIPIC) (SMILES CC[C@H](C)[C@@H]1NC(=O)[C@@H]2CCCN2C(=O)[C@H]([C@@H](C)CC)NC(=O)[C@@H]2CCCN2C(=O)[C@H](Cc2ccccc2)NC(=O)[C@H](C)NC(=O)[C@H](CS)NC1=O)”, the isolated yield was 42%. Substance “cyclo(AFPIP[Ile(ψThz)]) (SMILES CC[C@H](C)[C@@H]1NC(=O)[C@@H]2CCCN2C(=O)[C@H](Cc2ccccc2)NC(=O)[C@H](C)NC(=O)c2csc(n2)[C@H]([C@@H](C)CC)NC(=O)[C@@H]2CCCN2C1=O)” returned an isolated yield of 86%.
